Experimental data taken from PMC9393630.

Legend:
[1] = molecular target: T1, AtnCBP (nCBP of Arabidopsis thaliana), two-hybrid fusion in pGBKT7 (Arabidopsis thaliana) (UniProt Q9FK59); assay: two-hybrid; nCBP in pGBKT7, viral proteins in pGADT7, co-transformed into yeast strain AH109; medium lacking tryptophan, leucine, adenine and histidine with X-alpha-GAL (20 mg/L), blue plaques
T1 sequence: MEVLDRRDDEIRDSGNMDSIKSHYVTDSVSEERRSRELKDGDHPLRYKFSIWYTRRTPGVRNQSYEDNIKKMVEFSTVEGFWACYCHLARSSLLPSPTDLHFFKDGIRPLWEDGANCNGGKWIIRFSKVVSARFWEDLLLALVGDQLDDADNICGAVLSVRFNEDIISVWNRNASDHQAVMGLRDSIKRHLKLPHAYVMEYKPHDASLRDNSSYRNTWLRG

[2] = molecular target: T2, AtnCBP, BiFC fusion (split YFP) (Arabidopsis thaliana) (UniProt Q9FK59); assay: split reporter; nYFP and cYFP fusions agro-infiltrated into N. benthamiana leaves (final OD600 = 0.2); YFP observed at 48 h post-infiltration by confocal microscopy
T2 sequence: T1 sequence

Substance	binding [1]	binding [2]
Potato virus X TGB3, two-hybrid fusion in pGADT7	binds	
Potato virus X TGB2, two-hybrid fusion in pGADT7	binds	
Potato virus M coat protein, two-hybrid fusion	binds	
Potato virus M coat protein, BiFC fusion (split YFP)		binds
Potato virus X coat protein, two-hybrid fusion in pGADT7	binds	

These are yes or no findings as the source states them, for the method shown. Binding can be weak; no strength is given. Where a sequence is shown, tags or fusion partners need not be part of it. For some assays here: Binding seen in cells or lysates may run through a third protein.
